We go through 1 sequence from paper doi:10.1101/2023.10.29.564595.

The target of the data set is DNMT3A1 1-427 (NT-PWWP) (human) (UniProt Q9Y6K1). Put plainly: EMSA. The following applies: residues 1-427. For orientation: A gel shift assay detects complexes by their altered migration in electrophoresis.

Construct, isoform or probe ends are uncertain for at least one entry. At least one verdict was read from the data and is not stated in words by the source.

For “TATACGCGGCCGCCCTGGAGAATCCCGGTGCCGAGGCCGCTCAATTGGTCGTAGACAGCTCTAGCACCGCTTAAACGCACGTACGCGCTGTCCCCCGCGTTTTAACCGCCAAGGGGATTACTCCCTAGTCTCCAGGCACGTGTCAGATATATACATCCTGTGCAATGTGTTCCAT (double strand) [free 175 bp Widom601 DNA]”, the binding result is “binds”.
